The other results are listed elsewhere or left out.
Legend:
Test in all cases: log2 fold change, soluble protein after heating vs DMSO (PISA); higher = thermal stabilisation; K562 cells, 10 uM, 30 min; active = over 0.2 and 3.5 SD of the protein, either way, in both replicates (recomputed)
[1] = compound: CN1CCN(CCOc2cc(OC3CCOCC3)c3c(Nc4c(Cl)ccc5c4OCO5)ncnc3c2)CC1 [saracatinib]
In short: (§1)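 K562 cells at 2×10^6 cells/mL were given 10 μM compound for 30 min. Aliquots then went through 3 min of heating across 48°C-58°C, were pooled, and were extracted in PBS with 0.5% NP-40 at 4°C, and the supernatant after 21,000xg for 90 min was quantified by TMTpro 16plex LC-MS/MS with channel sums equalised. Thermal stability relative to control samples, from duplicates, is given as log2 fold change.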

The chains behind the UniProt entries cited, without tags or fusion partners. Where a name states a change or a piece, a line headed by the entry shows the natural chain unless it says otherwise.
UniProt Q9UNZ2: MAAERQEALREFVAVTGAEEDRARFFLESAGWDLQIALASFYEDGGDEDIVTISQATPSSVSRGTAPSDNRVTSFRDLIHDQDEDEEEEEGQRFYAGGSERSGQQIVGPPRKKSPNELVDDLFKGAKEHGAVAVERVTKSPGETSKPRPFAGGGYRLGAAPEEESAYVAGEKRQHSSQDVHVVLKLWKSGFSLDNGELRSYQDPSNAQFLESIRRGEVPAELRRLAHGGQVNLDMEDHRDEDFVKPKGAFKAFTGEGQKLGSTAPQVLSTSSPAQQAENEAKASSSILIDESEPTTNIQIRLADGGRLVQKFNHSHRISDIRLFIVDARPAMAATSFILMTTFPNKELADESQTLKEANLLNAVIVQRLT
UniProt P22392, whole entry, looked up: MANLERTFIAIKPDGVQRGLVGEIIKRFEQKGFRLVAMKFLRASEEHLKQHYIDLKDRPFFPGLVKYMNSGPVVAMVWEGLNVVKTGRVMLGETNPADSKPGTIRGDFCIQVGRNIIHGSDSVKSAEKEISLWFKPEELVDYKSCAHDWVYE
UniProt Q9UMS0: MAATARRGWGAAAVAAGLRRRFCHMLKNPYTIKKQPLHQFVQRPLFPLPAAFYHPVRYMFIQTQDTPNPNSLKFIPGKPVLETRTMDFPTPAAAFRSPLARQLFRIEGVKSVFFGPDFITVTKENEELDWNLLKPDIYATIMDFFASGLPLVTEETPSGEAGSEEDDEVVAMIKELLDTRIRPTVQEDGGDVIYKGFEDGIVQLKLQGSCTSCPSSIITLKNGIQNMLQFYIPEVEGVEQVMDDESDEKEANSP
UniProt Q13232: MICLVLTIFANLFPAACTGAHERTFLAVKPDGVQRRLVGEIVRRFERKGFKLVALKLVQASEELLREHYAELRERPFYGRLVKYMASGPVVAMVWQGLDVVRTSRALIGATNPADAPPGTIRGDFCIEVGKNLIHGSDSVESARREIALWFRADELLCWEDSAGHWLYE
UniProt Q7RTP0: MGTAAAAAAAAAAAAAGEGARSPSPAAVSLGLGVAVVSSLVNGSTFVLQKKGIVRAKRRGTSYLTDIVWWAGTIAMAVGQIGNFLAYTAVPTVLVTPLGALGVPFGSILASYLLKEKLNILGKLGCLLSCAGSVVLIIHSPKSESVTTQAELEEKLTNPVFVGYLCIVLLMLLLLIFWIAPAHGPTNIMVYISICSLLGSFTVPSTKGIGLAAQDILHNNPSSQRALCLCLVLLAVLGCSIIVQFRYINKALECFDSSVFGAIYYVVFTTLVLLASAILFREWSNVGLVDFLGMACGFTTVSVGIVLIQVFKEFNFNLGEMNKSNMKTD
UniProt Q13287: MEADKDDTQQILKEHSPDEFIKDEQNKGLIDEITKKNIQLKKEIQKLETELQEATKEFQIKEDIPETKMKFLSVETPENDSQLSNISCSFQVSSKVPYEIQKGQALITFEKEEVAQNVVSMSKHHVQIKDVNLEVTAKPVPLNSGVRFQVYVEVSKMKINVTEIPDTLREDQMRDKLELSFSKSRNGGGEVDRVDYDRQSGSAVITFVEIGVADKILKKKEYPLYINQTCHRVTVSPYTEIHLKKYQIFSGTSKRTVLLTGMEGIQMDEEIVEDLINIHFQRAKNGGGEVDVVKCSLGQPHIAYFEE
UniProt Q9Y639: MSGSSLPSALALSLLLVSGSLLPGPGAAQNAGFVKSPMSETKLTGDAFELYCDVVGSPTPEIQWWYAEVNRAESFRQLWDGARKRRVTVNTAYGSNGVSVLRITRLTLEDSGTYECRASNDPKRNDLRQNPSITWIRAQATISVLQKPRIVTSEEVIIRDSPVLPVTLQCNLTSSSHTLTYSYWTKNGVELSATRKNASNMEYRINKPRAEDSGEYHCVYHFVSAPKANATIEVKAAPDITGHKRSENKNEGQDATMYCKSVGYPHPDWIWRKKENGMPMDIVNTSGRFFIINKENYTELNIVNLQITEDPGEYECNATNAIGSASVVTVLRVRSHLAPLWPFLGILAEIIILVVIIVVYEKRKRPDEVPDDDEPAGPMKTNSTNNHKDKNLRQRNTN
UniProt Q5JPE7: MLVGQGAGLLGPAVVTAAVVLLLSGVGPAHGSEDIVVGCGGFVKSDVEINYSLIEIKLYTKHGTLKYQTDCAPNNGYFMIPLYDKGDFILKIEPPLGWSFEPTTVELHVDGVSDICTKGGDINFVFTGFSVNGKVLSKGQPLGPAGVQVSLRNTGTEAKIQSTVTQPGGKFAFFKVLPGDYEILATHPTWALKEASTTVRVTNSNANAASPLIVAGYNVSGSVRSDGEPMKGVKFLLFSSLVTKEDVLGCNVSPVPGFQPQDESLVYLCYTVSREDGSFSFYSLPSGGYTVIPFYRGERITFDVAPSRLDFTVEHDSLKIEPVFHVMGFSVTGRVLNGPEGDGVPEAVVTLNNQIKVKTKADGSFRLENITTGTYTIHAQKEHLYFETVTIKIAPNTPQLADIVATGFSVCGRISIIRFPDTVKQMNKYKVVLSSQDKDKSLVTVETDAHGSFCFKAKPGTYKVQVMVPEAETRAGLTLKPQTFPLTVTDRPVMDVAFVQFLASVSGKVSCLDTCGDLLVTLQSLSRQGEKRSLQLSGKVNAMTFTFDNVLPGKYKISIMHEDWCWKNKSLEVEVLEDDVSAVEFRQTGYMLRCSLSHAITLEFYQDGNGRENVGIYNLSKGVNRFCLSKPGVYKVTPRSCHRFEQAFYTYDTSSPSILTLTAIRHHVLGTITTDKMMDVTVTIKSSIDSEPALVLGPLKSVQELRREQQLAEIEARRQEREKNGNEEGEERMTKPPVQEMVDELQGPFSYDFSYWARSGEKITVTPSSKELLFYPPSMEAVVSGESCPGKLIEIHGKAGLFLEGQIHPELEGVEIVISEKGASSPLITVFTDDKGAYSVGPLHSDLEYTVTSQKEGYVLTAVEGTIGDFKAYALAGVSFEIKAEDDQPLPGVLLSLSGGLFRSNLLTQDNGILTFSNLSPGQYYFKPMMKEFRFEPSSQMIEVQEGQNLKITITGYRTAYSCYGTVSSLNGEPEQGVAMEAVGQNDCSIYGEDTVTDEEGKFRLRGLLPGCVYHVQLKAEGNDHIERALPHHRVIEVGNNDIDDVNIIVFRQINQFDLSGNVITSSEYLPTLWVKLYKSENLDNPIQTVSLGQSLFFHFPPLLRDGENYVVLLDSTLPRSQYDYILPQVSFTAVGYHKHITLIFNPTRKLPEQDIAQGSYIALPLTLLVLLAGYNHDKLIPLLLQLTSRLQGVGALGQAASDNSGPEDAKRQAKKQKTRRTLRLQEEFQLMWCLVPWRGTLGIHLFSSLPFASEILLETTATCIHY
UniProt Q86X76: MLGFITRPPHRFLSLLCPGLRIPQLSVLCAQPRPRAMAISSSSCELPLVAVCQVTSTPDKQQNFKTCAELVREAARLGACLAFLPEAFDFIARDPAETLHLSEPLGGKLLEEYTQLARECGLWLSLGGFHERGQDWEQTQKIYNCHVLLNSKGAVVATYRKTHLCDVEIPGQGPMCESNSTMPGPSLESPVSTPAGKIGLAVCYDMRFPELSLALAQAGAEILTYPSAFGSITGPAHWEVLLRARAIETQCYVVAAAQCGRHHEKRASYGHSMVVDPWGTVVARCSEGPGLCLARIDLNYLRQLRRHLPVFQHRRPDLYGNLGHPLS
UniProt Q12857, whole entry, looked up: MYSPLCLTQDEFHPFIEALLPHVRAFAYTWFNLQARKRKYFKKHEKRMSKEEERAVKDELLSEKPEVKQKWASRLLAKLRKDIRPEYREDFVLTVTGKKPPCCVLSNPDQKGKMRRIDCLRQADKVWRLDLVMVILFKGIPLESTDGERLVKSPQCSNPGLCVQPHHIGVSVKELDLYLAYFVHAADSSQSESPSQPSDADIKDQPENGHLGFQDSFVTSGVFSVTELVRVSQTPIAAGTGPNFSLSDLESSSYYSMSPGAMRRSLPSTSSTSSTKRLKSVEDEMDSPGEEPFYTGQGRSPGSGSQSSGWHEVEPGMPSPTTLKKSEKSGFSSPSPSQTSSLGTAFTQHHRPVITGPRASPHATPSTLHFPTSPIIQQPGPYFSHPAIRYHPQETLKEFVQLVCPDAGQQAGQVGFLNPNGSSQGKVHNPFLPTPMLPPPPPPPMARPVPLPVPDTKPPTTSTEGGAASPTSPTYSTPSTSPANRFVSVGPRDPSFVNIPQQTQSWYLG
UniProt Q9Y221: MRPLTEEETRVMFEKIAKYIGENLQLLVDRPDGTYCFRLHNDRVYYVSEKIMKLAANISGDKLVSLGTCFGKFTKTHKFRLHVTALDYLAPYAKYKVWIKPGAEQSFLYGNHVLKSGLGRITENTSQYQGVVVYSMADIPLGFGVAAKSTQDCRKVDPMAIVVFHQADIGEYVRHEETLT
UniProt Q9NX24: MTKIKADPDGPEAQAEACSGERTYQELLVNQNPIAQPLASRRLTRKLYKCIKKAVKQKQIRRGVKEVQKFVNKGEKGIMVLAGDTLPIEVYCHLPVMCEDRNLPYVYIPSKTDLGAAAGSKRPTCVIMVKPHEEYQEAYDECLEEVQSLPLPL
UniProt P46459: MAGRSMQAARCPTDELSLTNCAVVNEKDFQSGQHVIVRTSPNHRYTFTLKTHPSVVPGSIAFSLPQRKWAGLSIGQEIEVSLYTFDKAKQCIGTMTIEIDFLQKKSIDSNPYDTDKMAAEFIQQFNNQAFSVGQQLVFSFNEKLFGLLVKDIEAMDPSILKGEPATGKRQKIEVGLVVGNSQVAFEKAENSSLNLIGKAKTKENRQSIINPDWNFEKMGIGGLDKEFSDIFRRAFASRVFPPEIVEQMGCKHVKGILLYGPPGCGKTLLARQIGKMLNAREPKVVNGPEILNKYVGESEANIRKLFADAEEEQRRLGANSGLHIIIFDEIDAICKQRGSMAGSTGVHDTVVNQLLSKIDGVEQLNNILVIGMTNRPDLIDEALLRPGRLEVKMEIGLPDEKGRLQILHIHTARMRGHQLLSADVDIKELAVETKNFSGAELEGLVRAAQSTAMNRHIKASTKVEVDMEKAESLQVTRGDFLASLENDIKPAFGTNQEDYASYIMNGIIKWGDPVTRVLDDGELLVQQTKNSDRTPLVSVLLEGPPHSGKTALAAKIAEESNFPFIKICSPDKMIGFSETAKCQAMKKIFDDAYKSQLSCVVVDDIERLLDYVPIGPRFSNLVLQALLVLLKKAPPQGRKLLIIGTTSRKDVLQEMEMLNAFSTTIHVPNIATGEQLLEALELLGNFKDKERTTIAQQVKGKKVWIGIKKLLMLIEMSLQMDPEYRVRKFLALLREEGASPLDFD
UniProt P23511, whole entry, looked up: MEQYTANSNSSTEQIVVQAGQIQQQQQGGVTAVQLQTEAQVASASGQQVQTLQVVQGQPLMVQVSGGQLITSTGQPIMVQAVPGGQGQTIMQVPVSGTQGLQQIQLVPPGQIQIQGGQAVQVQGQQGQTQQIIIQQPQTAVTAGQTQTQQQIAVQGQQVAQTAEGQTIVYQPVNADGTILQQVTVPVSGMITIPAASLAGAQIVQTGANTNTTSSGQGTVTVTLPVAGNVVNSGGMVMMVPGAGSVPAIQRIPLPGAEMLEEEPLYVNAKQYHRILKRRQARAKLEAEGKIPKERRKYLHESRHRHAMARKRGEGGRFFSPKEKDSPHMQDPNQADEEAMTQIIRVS
UniProt P35240: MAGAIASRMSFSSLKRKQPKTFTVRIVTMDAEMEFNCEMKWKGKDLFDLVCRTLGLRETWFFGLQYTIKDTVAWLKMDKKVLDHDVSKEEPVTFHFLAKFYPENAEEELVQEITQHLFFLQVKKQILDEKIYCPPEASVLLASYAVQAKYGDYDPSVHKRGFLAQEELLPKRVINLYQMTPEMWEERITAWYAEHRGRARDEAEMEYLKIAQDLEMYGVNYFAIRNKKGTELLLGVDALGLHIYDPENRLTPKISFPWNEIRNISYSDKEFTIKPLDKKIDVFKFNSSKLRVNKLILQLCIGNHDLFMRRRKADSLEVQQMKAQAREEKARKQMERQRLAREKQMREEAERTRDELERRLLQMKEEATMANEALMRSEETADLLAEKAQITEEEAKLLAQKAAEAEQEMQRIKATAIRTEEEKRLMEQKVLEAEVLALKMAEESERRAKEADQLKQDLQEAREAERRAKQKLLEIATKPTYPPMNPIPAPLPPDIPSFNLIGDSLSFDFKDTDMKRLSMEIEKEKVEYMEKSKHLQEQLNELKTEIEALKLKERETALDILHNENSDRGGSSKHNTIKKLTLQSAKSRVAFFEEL

[2] = compound: CN1CCN(c2nc(C3=C(c4c[nH]c5ccccc45)C(=O)NC3=O)c3ccccc3n2)CC1 [sotrastaurin]
In short: as §1

[3] = compound: CN1CC[C@H](c2c(O)cc(O)c3c(=O)cc(-c4ccccc4Cl)oc23)[C@H](O)C1 [alvocidib]
In short: as §1

[4] = compound: CN1CCc2c(c3ccccc3n2Cc2ccc(C(=O)NO)cc2)C1 [Tubastatin A]
In short: as §1

[5] = compound: CNC(=O)C1=CC=CC=C1NC2=NC(=NC=C2Cl)NC3=C(C=C(C=C3)N4CCOCC4)OC
In short: as §1

[6] = compound: CNC(=O)c1ccc(Nc2ncc(C(F)(F)F)c(NCc3nccnc3N(C)S(C)(=O)=O)n2)cc1 [defactinib]
In short: as §1

[7] = compound: CNCc1ccc(-c2[nH]c3cc(F)cc4c3c2CCNC4=O)cc1 [rucaparib]
In short: as §1

[8] = compound: CNc1nc(-c2ccc3c(N)n[nH]c3c2)cc(N2C[C@@H](C(=O)NC3CCCCC3)CC[C@H]2C)n1
In short: as §1

[9] = compound: COC(=O)N[C@@H](C)CNc1nccc(-c2cn(C(C)C)nc2-c2cc(Cl)cc(NS(C)(=O)=O)c2F)n1 [encorafenib]
In short: as §1

[10] = compound: COC(=O)[C@H](CCSC)NC(=O)C1=C(C=C(C=C1)NC[C@H](CS)N)C2=CC=CC=C2
In short: as §1

[11] = compound: COC1=CC=C(C=C1)CN2C=CC3=C2C=C(C=C3)C(=O)NO
In short: as §1

[12] = compound: CON(C)C(=O)N1N=C(c2cc(F)ccc2F)S[C@@]1(CCCN)c1ccccc1 [filanesib]
In short: as §1

[13] = compound: CO[C@H]1C[C@@H]2CC[C@@H](C)[C@@](O)(O2)C(=O)C(=O)N2CCCC[C@H]2C(=O)O[C@H]([C@H](C)C[C@@H]2CC[C@H](n3cnnn3)[C@H](OC)C2)CC(=O)[C@H](C)/C=C(\C)[C@@H](O)[C@@H](OC)C(=O)[C@H](C)C[C@H](C)/C=C/C=C/C=C/1C [zotarolimus]
In short: as §1

[14] = compound: COc1cc(C(=O)O)ccc1NC(=O)[C@@H]1N[C@@H](CC(C)(C)C)[C@](C#N)(c2ccc(Cl)cc2F)[C@H]1c1cccc(Cl)c1F [idasanutlin]
In short: as §1

[15] = compound: COc1cc(Nc2ncc3c(n2)-c2ccc(Cl)cc2C(c2c(F)cccc2OC)=NC3)ccc1C(=O)O [alisertib]
In short: as §1

[16] = compound: COc1cc2nc(-c3cc(F)ccc3O)nc(N[C@@H]3CNC[C@H]3C(C)(C)O)c2cc1OC
In short: as §1

[17] = compound: COc1cc2ncnc(Nc3ccc(F)c(Cl)c3)c2cc1OCCCN1CCOCC1 [gefitinib]
In short: as §1

[18] = compound: COc1cccc2cc(-c3nc([C@H]4CC[C@H](C(=O)O)CC4)n4ncnc(N)c34)[nH]c12
In short: as §1

[19] = compound: CS(=O)(=O)CCNCc1ccc(-c2ccc3ncnc(Nc4ccc(OCc5cccc(F)c5)c(Cl)c4)c3c2)o1 [lapatinib]
In short: as §1

[20] = compound: CS(=O)(=O)N1CCN(Cc2cc3nc(-c4cccc5[nH]ncc45)nc(N4CCOCC4)c3s2)CC1 [pictilisib]
In short: as §1

Measured: log2 fold change

NSFL1C isoform 5 (UniProt Q9UNZ2)
inactive: [1] 0.002 | [2] -0.066 | [3] -0.045 | [4] 0.006 | [5] 0.025 | [6] -0.045 | [7] -0.07 | [8] -0.018 | [9] -0.012 | [10] -0.023 | [11] 0.113 | [12] -0.071 | [13] 0.027 | [14] 0.033 | [15] -0.036 | [16] -0.023 | [17] 0.001 | [18] 0 | [19] 0.01 | [20] 0.019

NME2 isoform 2 (UniProt P22392)
inactive: [1] 0.003 | [2] 0.044 | [3] -0.009 | [4] -0.009 | [5] -0.05 | [6] 0.001 | [7] -0.019 | [8] -0.043 | [9] -0.017 | [10] 0.027 | [11] -0.014 | [12] -0.012 | [13] -0.029 | [14] -0.017 | [15] -0.041 | [16] 0.035 | [17] -0.011 | [18] 0.086 | [19] -0.047 | [20] 0.063

NFU1 (UniProt Q9UMS0)
inactive: [1] -0.014 | [2] -0.058 | [3] 0.012 | [4] -0.013 | [5] 0.031 | [6] 0.007 | [7] -0.048 | [8] -0.044 | [9] -0.076 | [10] 0.012 | [11] -0.033 | [12] -0.083 | [13] 0.029 | [14] -0.019 | [15] -0.071 | [16] -0.036 | [17] -0.002 | [18] 0.014 | [19] -0.008 | [20] -0.03

NRAS (UniProt P01111)
inactive: [1] 0 | [2] 0.107 | [3] -0.01 | [4] -0.023 | [5] -0.008 | [6] -0.002 | [7] -0.008 | [8] 0.044 | [9] -0.041 | [10] 0.023 | [11] -0.014 | [12] 0.053 | [13] -0.015 | [14] 0.009 | [15] -0.074 | [16] 0.046 | [17] 0 | [18] 0.009 | [19] -0.013 | [20] -0.05

NME3 (UniProt Q13232)
inactive: [1] 0.036 | [2] 0.05 | [3] 0.019 | [4] 0 | [5] -0.022 | [6] 0 | [7] -0.024 | [8] -0.072 | [9] -0.052 | [10] -0.01 | [11] -0.014 | [12] -0.124 | [13] -0.054 | [14] -0.064 | [15] -0.05 | [16] 0.005 | [17] 0 | [18] 0.036 | [19] -0.007 | [20] 0.015

Quoted at random: 2 records from the list, in no set order.
NME2 isoform 2 (UniProt P22392)
inactive: [1] 0.003 | [2] 0.044 | [3] -0.009 | [4] -0.009 | [5] -0.05 | [6] 0.001 | [7] -0.019 | [8] -0.043 | [9] -0.017 | [10] 0.027 | [11] -0.014 | [12] -0.012 | [13] -0.029 | [14] -0.017 | [15] -0.041 | [16] 0.035 | [17] -0.011 | [18] 0.086 | [19] -0.047 | [20] 0.063

NRAS (UniProt P01111)
inactive: [1] 0 | [2] 0.107 | [3] -0.01 | [4] -0.023 | [5] -0.008 | [6] -0.002 | [7] -0.008 | [8] 0.044 | [9] -0.041 | [10] 0.023 | [11] -0.014 | [12] 0.053 | [13] -0.015 | [14] 0.009 | [15] -0.074 | [16] 0.046 | [17] 0 | [18] 0.009 | [19] -0.013 | [20] -0.05

The list goes on:

NIPA1 (UniProt Q7RTP0)
inactive: [1] 0.156 | [2] -0.053 | [3] 0.1 | [4] -0.029 | [5] 0 | [6] 0.059 | [7] -0.045 | [8] -0.012 | [9] -0.092 | [10] -0.068 | [11] -0.143 | [12] -0.061 | [13] -0.045 | [14] -0.091 | [15] 0.034 | [16] 0.108 | [17] 0.101 | [18] 0.195 | [19] 0.048

NMI (UniProt Q13287)
inactive: [1] -0.013 | [2] 0.014 | [3] 0.002 | [4] -0.035 | [5] -0.038 | [6] 0.007 | [7] 0 | [8] -0.029 | [9] -0.005 | [10] 0.011 | [11] -0.016 | [12] -0.014 | [13] -0.018 | [14] -0.014 | [15] -0.03 | [16] 0.035 | [17] 0.008 | [18] 0.051 | [19] -0.022 | [20] 0.049

NPTN (UniProt Q9Y639)
inactive: [1] 0.03 | [2] 0.053 | [3] -0.043 | [4] 0.052 | [5] -0.011 | [6] -0.058 | [7] -0.068 | [8] -0.019 | [9] -0.009 | [10] -0.001 | [11] 0.173 | [12] 0.132 | [13] -0.03 | [14] 0.109 | [15] 0.019 | [16] 0.132 | [17] 0.036 | [18] 0.141 | [19] -0.038 | [20] 0.038

NOMO2 (UniProt Q5JPE7)
inactive: [1] -0.003 | [2] -0.01 | [3] -0.004 | [4] 0.019 | [5] 0.014 | [6] -0.009 | [7] 0.027 | [8] 0.011 | [9] 0.045 | [10] -0.035 | [11] -0.006 | [12] -0.025 | [13] 0.024 | [14] -0.031 | [15] -0.058 | [16] -0.035 | [17] -0.002 | [18] -0.003 | [19] 0.002 | [20] 0.125

NIT1 (UniProt Q86X76)
inactive: [1] 0.044 | [2] -0.001 | [3] -0.017 | [4] 0.024 | [5] -0.056 | [6] -0.023 | [7] 0.029 | [8] -0.052 | [9] -0.032 | [10] 0.034 | [11] 0.068 | [12] 0.015 | [13] 0.007 | [14] -0.055 | [15] -0.012 | [16] -0.014 | [17] 0.024 | [18] -0.003 | [19] 0.027 | [20] 0.028

NFIA isoform 4 (UniProt Q12857)
inactive: [1] -0.012 | [2] 0.003 | [3] -0.002 | [4] -0.076 | [5] 0.084 | [6] 0.025 | [7] -0.004 | [8] -0.041 | [9] 0.015 | [10] -0.005 | [11] -0.004 | [12] 0.06 | [13] -0.04 | [14] -0.017 | [15] -0.072 | [16] -0.004 | [17] 0.023 | [18] 0.036 | [19] 0.003 | [20] 0.072

NIP7 (UniProt Q9Y221)
inactive: [1] -0.056 | [2] 0.069 | [3] 0.279 | [4] -0.061 | [5] -0.05 | [6] 0.408 | [7] 0.534 | [8] -0.014 | [9] 0.039 | [10] 0.018 | [11] 0.024 | [12] 0.397 | [13] 0.081 | [14] 0.16 | [15] -0.211 | [16] -0.004 | [17] 0.029 | [18] 0.009 | [19] 0.062 | [20] 0.018

NHP2 (UniProt Q9NX24)
inactive: [1] 0.058 | [2] 0.01 | [3] 0.263 | [4] -0.024 | [5] 0.006 | [6] 0.204 | [7] 0.16 | [8] 0.009 | [9] 0.017 | [10] 0.064 | [11] -0.001 | [12] 0.185 | [13] -0.021 | [14] 0.154 | [15] -0.118 | [16] 0.008 | [17] 0.044 | [18] 0.032 | [19] 0.017 | [20] -0.038

NSF (UniProt P46459)
inactive: [1] -0.055 | [2] -0.031 | [3] -0.058 | [4] 0.011 | [5] -0.008 | [6] -0.038 | [7] 0.014 | [8] 0.042 | [9] 0.031 | [10] -0.032 | [11] -0.002 | [12] -0.051 | [13] 0.028 | [14] -0.054 | [15] -0.021 | [16] 0.048 | [17] -0.037 | [18] -0.007 | [19] 0 | [20] 0.03

NFYA (UniProt P23511)
inactive: [1] -0.096 | [2] 0.152 | [3] -0.046 | [4] -0.006 | [5] 0.007 | [6] -0.025 | [7] 0.131 | [8] 0.029 | [9] -0.024 | [10] 0.043 | [11] -0.064 | [12] -0.128 | [13] 0.003 | [14] -0.04 | [15] -0.082 | [16] 0.079 | [17] 0.009 | [18] 0.088 | [19] 0.033 | [20] 0.065

NF2 (UniProt P35240)
inactive: [1] -0.04 | [2] 0.025 | [3] -0.077 | [4] 0.024 | [5] -0.01 | [6] -0.13 | [7] 0.046 | [8] 0.019 | [9] 0.013 | [10] 0.012 | [11] -0.006 | [12] -0.036 | [13] 0.018 | [14] 0.042 | [15] -0.119 | [16] 0.021 | [17] 0.123 | [18] 0.016 | [19] -0.029 | [20] -0.044
